Data taken from publication PMC8471540.
No constants are given. Whether binding was seen depends on the method and setting. For some assays here: Binding seen in cells or lysates may run through a third protein. Some entries that bind do so weakly or less than the wild type. Each block holds one binder with its values, some of them ahead of it.

Experiments:
[1] = biological target: receptor interacting protein kinase 3 (mouse (endogenous in MOVAS)), Q9QZL0; test: co-IP; MOVAS cells treated with 30 ng/mL TNFα plus 60 µM zVAD for 6 h; lysed in Pierce IP Lysis Buffer; anti-RIPK3, anti-pan-CaMKII or rabbit IgG on Protein A magnetic beads, incubated with lysate overnight at 4 °C, washed with TBST; immunoblot; conditions: remark: other sources report otherwise
[2] = biological target: mixed lineage kinase domain-like pseudokinase (mouse (endogenous in MOVAS)) (UniProt Q9D2Y4); test: Western blot of digitonin lysates for oligomers; MOVAS cells transfected with scrambled or Camk2d siRNAs, treated with 30 ng/mL TNFα plus 60 µM zVAD for 6 h; lysed in 1% digitonin; SDS-PAGE and blot with anti-MLKL or anti-phospho-MLKL

binding [1]: binds
B1: receptor interacting protein kinase 1, Q60855 1-656 (protein)
chain: MQPDMSLDNIKMASSDLLEKTDLDSGGFGKVSLCYHRSHGFVILKKVYTGPNRAEYNEVLLEEGKMMHRLRHSRVVKLLGIIIEEGNYSLVMEYMEKGNLMHVLKTQIDVPLSLKGRIIVEAIEGMCYLHDKGVIHKDLKPENILVDRDFHIKIADLGVASFKTWSKLTKEKDNKQKEVSSTTKKNNGGTLYYMAPEHLNDINAKPTEKSDVYSFGIVLWAIFAKKEPYENVICTEQFVICIKSGNRPNVEEILEYCPREIISLMERCWQAIPEDRPTFLGIEEEFRPFYLSHFEEYVEEDVASLKKEYPDQSPVLQRMFSLQHDCVPLPPSRSNSEQPGSLHSSQGLQMGPVEESWFSSSPEYPQDENDRSVQAKLQEEASYHAFGIFAEKQTKPQPRQNEAYNREEERKRRVSHDPFAQQRARENIKSAGARGHSDPSTTSRGIAVQQLSWPATQTVWNNGLYNQHGFGTTGTGVWYPPNLSQMYSTYKTPVPETNIPGSTPTMPYFSGPVADDLIKYTIFNSSGIQIGNHNYMDVGLNSQPPNNTCKEESTSRHQAIFDNTTSLTDEHLNPIRENLGRQWKNCARKLGFTESQIDEIDHDYERDGLKEKVYQMLQKWLMREGTKGATVGKLAQALHQCCRIDLLNHLIRASQS

binding [2]: binds
B2: mixed lineage kinase domain-like pseudokinase (protein, UniProt Q9D2Y4 1-472)
chain: MDKLGQIIKLGQLIYEQCEKMKYCRKQCQRLGNRVHGLLQPLQRLQAQGKKNLPDDITAALGRFDEVLKEANQQIEKFSKKSHIWKFVSVGNDKILFHEVNEKLRDVWEELLLLLQVYHWNTVSDVSQPASWQQEDRQDAEEDGNENMKVILMQLQISVEEINKTLKQCSLKPTQEIPQDLQIKEIPKEHLGPPWTKLKTSKMSTIYRGEYHRSPVTIKVFNNPQAESVGIVRFTFNDEIKTMKKFDSPNILRIFGICIDQTVKPPEFSIVMEYCELGTLRELLDREKDLTMSVRSLLVLRAARGLYRLHHSETLHRNISSSSFLVAGGYQVKLAGFELSKTQNSISRTAKSTKAERSSSTIYVSPERLKNPFCLYDIKAEIYSFGIVLWEIATGKIPFEGCDSKKIRELVAEDKKQEPVGQDCPELLREIINECRAHEPSQRPSVDGRSLSGRERILERLSAVEESTDKKV
